Assay results published in patent publication US6894153B1, “Gene Any-RF; dormancy regulatory substance, process for producing the same and cell regulator for vital cells” (priority 1999, dated 2005).
Not every detail of the peptide structures is certain; ends, links or a residue may be inferred. Residues, ends and D or L forms follow the SMILES beside them. No end group written: not given here.

Assays:
[1] = system: pre-larvae of Antheraea yamamai; assay: Bioassay of dormancy-control in pre-larvae destined to awake by KK-42 treatment; details: 100 pmol/0.05 μl injected once 24 hours after KK-42 treatment; for Number of Insects Awa (Awakening from Dormancy): N 10 × 3
Description: In general, the activity of a repressive factor is determined using a non-dormancy type insect and evaluated on the basis of the rate of dormancy induction, but there is not any non-dormancy type strain in Antheraea yamamai.
Subsequent to the completion of the treatment for awakening from the dormancy, 0.05 μl each of distilled water was injected to each larva after 24 hours from the completion of the treatment and this group of larvae was used as the control group. In the case of the isolated and purified product, a solution whose concentration was adjusted in such a manner that 100 pmol of the product was present in 0.05 μl of distilled water was injected into each larva, while in the case of the synthetic peptides in the amidated and free acid forms, 100 pmol/0.05 μl each of the peptide was injected into each larva. In any case, the larvae were inspected for the number of larvae falling into dormancy, the number of larvae awakening from the dormancy, the number of died larvae and the average days required till awakening from the dormancy (diapause termination) to thus evaluate the rate of larvae awakening from the dormancy.
After 24 hours from the treatment with the KK-42 solution, 0.05 μl of distilled water was injected to the pre-larvae, followed by a second distilled water injection thereto after additional 24 hours and a third distilled water injection after additional 24 hours from the second distilled water injection (in the following Table 2, they are referred to as control 1, 2 and 3 respectively). And the rate of pre-larvae awaken from the dormancy (the rate of diapause termination) was evaluated in each case.

[2] = system: rat hepatoma cells (dRLh84); assay: Assay for cancer cell growth-control (viable cell count, trypan blue); format: cell-based; details: Example 7
Description: (§1) Rat hepatoma cells (dRLh 84) were used and these cells were cultivated in Dulbecco's modified Eagle medium (DMEM) containing 4 mM glutamine, 50U/ml penicillin, 100 μg/ml kanamycin, and supplemented with 10% neonatal calf serum. In respect of the foregoing cells, the cultivation thereof was carried out at 37° C. in a wet atmosphere including 5% CO2.
The used culture medium was removed from a (100 mm dish (generally schale) in which cells were cultured and the dish was once washed with PBS(−) (prepared by removing Ca and Mg ions from phosphate buffered saline). To the dish, there was gently added 1.5 ml of a 10% trypsin solution so that the solution uniformly spreaded throughout the dish, 1 ml of the solution was removed, the dish was maintained at 37° C. for 5 minutes and it was confirmed with a microscope that the cells were pealed off from the bottom of the dish. Then 9.5 ml of a fresh DEME medium was added to the dish and the cells were separated into individual cells by pipetting to thus suspend the cells in the medium. Dishes of Φ100 mm were inoculated with this suspension in a dilution of 1/20 (total amount: 10 ml), followed by introduction thereof into an incubator and cultivation for 24 hours. […]

[3] = system: rat hepatoma cells (dRLh84); assay: Morphological observation of cultured cancer cells (inverted microscope); format: cell-based; details: 200 μg/ml; after 24 and 48 hours
Description: as §1
The inhibitory effect of the penta-peptide on the growth of cancer cells was examined as follows. As the cancer cells, there were used rat hepatoma cells (dRLh84), which were relatively easily available and whose cultivation was easy. To make clear the relation between the physiologically active substance (RF—NH2) of the present invention and the growth of cancer cells, cancer cells were cultured in a cell culture medium supplemented with PBS(−) for a control group and culture mediums supplemented with 200 μg/ml each of the peptide whose C-terminal was amidated, i.e., RF—NH2 and the peptide whose C-terminal was in a free acid form, i.e., RF—COOH, respectively, for the experimental groups. The number of cultured cells was adjusted to 3 to 5×10^5, and the cells were cultured with or without a predetermined amount of each peptide in the presence of 5% CO2 at 37° C. […]

Row | Molecule | No. of Days (Time (day) required till Awakening) [1] | Rate (the rate of larvae awakening from dormancy) [1] | Number of Insects Awa (Awakening from Dormancy) [1] | viable cell count ([2]; 200 μg/ml, 3×10^5 cells cultured 40 hours) | change in the cell proliferation activity ([2]; even at 200 μg/ml, 40 hours) | number of cancer cells compared with the initiation of the cultivation (0 hour) [3] | Rate (the rate of larvae awakening from dormancy) ([1]; listed as isolated and purified product)
1 | DILRG-OH [Asp-Ile-Leu-Arg-Gly-COOH] | 5.78 days | 90.0% | 27 | ~14.6×10^5 cells | not any change | quite conspicuously increased | –
2 | CC[C@H](C)[C@H](NC(=O)[C@@H](N)CC(=O)O)C(=O)N[C@@H](CC(C)C)C(=O)N[C@@H](CCCNC(=N)N)C(=O)NCC(N)=O [Purified Peptide] (H-DILRG-NH2) | 6.46 days | 43.3% | 13 | – | – | – | 43.3%
